Data reported in paper PMC7312997.
These are yes or no findings as the source states them, for the method shown. Binding seen in cells or lysates may run through a third protein. Some entries that bind do so weakly or less than the wild type. Where a sequence is shown, tags or fusion partners need not be part of it.

Protein sequences, listed by entry. Tags and fused reporters are not part of them.
UniProt P40937: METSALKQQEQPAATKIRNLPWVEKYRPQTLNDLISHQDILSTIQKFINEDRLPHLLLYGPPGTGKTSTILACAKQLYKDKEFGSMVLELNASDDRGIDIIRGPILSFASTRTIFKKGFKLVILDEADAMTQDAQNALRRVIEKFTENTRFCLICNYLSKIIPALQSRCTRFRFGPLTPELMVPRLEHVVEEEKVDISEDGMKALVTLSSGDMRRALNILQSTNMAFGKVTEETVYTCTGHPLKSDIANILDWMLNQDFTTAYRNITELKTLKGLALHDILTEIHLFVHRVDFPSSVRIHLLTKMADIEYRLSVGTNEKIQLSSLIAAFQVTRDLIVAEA
UniProt P12004: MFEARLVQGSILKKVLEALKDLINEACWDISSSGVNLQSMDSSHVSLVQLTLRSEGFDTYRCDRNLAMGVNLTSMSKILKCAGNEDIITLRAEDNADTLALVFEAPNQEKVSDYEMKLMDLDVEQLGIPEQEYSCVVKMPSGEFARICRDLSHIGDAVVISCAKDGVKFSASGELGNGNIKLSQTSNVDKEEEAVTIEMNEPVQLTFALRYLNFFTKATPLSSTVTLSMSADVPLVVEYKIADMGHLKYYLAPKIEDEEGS

T1: DNA helicase HELLS (human (endogenous in 293T)) (UniProt Q9NRZ9)
T1 sequence: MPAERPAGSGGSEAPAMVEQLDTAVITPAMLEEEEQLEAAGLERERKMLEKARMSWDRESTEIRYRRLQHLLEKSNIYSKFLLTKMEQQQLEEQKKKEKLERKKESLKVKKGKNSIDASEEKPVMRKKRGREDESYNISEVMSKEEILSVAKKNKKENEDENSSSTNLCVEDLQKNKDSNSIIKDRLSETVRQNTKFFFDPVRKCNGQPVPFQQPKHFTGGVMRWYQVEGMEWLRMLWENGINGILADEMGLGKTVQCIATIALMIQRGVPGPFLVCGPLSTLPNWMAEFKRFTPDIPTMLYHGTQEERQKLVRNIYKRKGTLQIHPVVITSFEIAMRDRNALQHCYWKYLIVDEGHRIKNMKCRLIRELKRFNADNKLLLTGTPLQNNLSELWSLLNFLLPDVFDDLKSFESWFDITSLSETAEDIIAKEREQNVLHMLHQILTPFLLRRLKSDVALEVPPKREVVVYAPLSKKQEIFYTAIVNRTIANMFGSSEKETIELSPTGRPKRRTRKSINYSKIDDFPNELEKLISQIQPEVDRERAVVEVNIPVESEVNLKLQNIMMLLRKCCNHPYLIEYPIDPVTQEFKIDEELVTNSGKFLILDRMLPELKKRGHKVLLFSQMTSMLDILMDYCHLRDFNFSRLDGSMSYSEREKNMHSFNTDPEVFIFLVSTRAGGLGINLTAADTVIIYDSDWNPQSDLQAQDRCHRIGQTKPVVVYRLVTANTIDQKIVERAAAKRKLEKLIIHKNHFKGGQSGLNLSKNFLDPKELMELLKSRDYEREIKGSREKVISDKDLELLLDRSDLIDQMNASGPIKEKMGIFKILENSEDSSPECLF

T2: MYSM1-Flag (Myb-like Swirm and MPN domain containing 1, 2A-DUB/MYSM1) (UniProt Q5VVJ2)
T2 sequence: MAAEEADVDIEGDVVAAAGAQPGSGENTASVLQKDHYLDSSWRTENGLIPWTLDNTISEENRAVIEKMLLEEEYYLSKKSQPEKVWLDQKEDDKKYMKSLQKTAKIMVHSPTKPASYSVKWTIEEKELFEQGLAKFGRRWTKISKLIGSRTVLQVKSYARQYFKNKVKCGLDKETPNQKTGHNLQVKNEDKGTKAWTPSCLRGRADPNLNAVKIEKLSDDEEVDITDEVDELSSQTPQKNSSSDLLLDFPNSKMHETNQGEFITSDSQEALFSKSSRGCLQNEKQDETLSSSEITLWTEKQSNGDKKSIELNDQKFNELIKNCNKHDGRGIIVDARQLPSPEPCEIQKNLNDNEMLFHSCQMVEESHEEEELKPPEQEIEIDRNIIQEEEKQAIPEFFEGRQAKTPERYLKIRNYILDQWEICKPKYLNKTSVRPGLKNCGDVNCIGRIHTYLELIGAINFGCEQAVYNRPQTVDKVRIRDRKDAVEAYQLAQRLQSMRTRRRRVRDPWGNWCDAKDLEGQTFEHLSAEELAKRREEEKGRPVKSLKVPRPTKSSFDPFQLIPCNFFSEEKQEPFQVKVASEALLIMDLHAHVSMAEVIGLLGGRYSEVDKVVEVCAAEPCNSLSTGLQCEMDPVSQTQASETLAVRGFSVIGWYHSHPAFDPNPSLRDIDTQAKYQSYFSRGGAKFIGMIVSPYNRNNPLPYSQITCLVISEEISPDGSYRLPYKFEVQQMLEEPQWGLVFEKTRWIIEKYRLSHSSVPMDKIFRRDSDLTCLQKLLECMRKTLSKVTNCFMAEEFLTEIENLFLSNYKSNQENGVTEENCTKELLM


Key:
[1] = target: T1, DNA helicase HELLS (human (endogenous in 293T)); assay: co-IP; reverse co-IP with antibodies against HELLS, PCNA or RFC5 vs. control IgG in lysates of MYSM1-Flag transfected 293T cells treated with etoposide or DMSO for 6 h; Western blot (MYSM1 detected by anti-Flag)
[2] = target: T2, MYSM1-Flag (Myb-like Swirm and MPN domain containing 1, 2A-DUB/MYSM1); assay: co-IP; anti-Flag antibody (F1804) vs. control IgG on Protein G Dynabeads, overnight with 200 µg lysate of MYSM1-Flag transfected 293T cells in PBS-T at 4 °C; cells treated with etoposide or DMSO; Western blot of the eluate
[3] = target: replication factor C subunit RFC5 (human (endogenous in 293T)) (UniProt P40937); assay: co-IP; reverse co-IP with antibodies against HELLS, PCNA or RFC5 vs. control IgG in lysates of MYSM1-Flag transfected 293T cells treated with etoposide or DMSO for 6 h; Western blot (MYSM1 detected by anti-Flag)
[4] = target: PCNA (human (endogenous in 293T)) (UniProt P12004); assay: as above

binding [1]	binding [2]	binding [3]	binding [4]	Molecule
binds	binds	–	–	PCNA (from UniProt P12004 1-261)
binds	binds	–	–	replication factor C subunit RFC5 (from UniProt P40937 1-340)
–	binds	binds	–	DNA helicase HELLS (enzyme, UniProt Q9NRZ9 1-838) MPAERPAGSGGSEAPAMVEQLDTAVITPAMLEEEEQLEAAGLERERKMLEKARMSWDRESTEIRYRRLQHLLEKSNIYSKFLLTKMEQQQLEEQKKKEKLERKKESLKVKKGKNSIDASEEKPVMRKKRGREDESYNISEVMSKEEILSVAKKNKKENEDENSSSTNLCVEDLQKNKDSNSIIKDRLSETVRQNTKFFFDPVRKCNGQPVPFQQPKHFTGGVMRWYQVEGMEWLRMLWENGINGILADEMGLGKTVQCIATIALMIQRGVPGPFLVCGPLSTLPNWMAEFKRFTPDIPTMLYHGTQEERQKLVRNIYKRKGTLQIHPVVITSFEIAMRDRNALQHCYWKYLIVDEGHRIKNMKCRLIRELKRFNADNKLLLTGTPLQNNLSELWSLLNFLLPDVFDDLKSFESWFDITSLSETAEDIIAKEREQNVLHMLHQILTPFLLRRLKSDVALEVPPKREVVVYAPLSKKQEIFYTAIVNRTIANMFGSSEKETIELSPTGRPKRRTRKSINYSKIDDFPNELEKLISQIQPEVDRERAVVEVNIPVESEVNLKLQNIMMLLRKCCNHPYLIEYPIDPVTQEFKIDEELVTNSGKFLILDRMLPELKKRGHKVLLFSQMTSMLDILMDYCHLRDFNFSRLDGSMSYSEREKNMHSFNTDPEVFIFLVSTRAGGLGINLTAADTVIIYDSDWNPQSDLQAQDRCHRIGQTKPVVVYRLVTANTIDQKIVERAAAKRKLEKLIIHKNHFKGGQSGLNLSKNFLDPKELMELLKSRDYEREIKGSREKVISDKDLELLLDRSDLIDQMNASGPIKEKMGIFKILENSEDSSPECLF
binds	–	binds	binds	MYSM1-Flag (Myb-like Swirm and MPN domain containing 1, 2A-DUB/MYSM1) (enzyme, UniProt Q5VVJ2 1-828) MAAEEADVDIEGDVVAAAGAQPGSGENTASVLQKDHYLDSSWRTENGLIPWTLDNTISEENRAVIEKMLLEEEYYLSKKSQPEKVWLDQKEDDKKYMKSLQKTAKIMVHSPTKPASYSVKWTIEEKELFEQGLAKFGRRWTKISKLIGSRTVLQVKSYARQYFKNKVKCGLDKETPNQKTGHNLQVKNEDKGTKAWTPSCLRGRADPNLNAVKIEKLSDDEEVDITDEVDELSSQTPQKNSSSDLLLDFPNSKMHETNQGEFITSDSQEALFSKSSRGCLQNEKQDETLSSSEITLWTEKQSNGDKKSIELNDQKFNELIKNCNKHDGRGIIVDARQLPSPEPCEIQKNLNDNEMLFHSCQMVEESHEEEELKPPEQEIEIDRNIIQEEEKQAIPEFFEGRQAKTPERYLKIRNYILDQWEICKPKYLNKTSVRPGLKNCGDVNCIGRIHTYLELIGAINFGCEQAVYNRPQTVDKVRIRDRKDAVEAYQLAQRLQSMRTRRRRVRDPWGNWCDAKDLEGQTFEHLSAEELAKRREEEKGRPVKSLKVPRPTKSSFDPFQLIPCNFFSEEKQEPFQVKVASEALLIMDLHAHVSMAEVIGLLGGRYSEVDKVVEVCAAEPCNSLSTGLQCEMDPVSQTQASETLAVRGFSVIGWYHSHPAFDPNPSLRDIDTQAKYQSYFSRGGAKFIGMIVSPYNRNNPLPYSQITCLVISEEISPDGSYRLPYKFEVQQMLEEPQWGLVFEKTRWIIEKYRLSHSSVPMDKIFRRDSDLTCLQKLLECMRKTLSKVTNCFMAEEFLTEIENLFLSNYKSNQENGVTEENCTKELLM
